Data on 1 molecule can be found in US11833178B2, “Bifidobacterium longum for treating obesity and weight management” (priority 2017, dated 2023).

One may read the MIC as the lowest concentration found to suppress growth. Low values mean greater potency, high ones weaker potency.

SMILES strings stand for the structures. In brackets after ≈: the same amount, converted by molar mass.

The test system of this test is Bifidobacterium longum APC1472. In words: Antibiotic susceptibility (VetMIC plates, ISO 10932:2010). To be noted: range of MICs for duplicate experiments, 37° C., 48 h. It counts as cell-based, Bifidobacterium longum ssp. longum. How it is done:
Antibiotic susceptibility was tested with […] plates Lact-1 and Lact-2 supplied from SVA (National Veterinary Institute, Uppsala, Sweden). The procedure followed the international standard of antibiotic testing for Bifidobacteria (ISO 10932:2010/IDF 223:2010). Colonies were suspended to OD 0.16-0.2 (at 625 nm) in LSM-Cys media (90% (v/v) ISO-sensitest (Ocon chemicals), 10% (v/v) MRS broth (Difco laboratories, Detroit, MI), supplemented with 0.3 g/L L-Cysteine (Sigma Aldrich) from strains grown on RCM agar anaerobically incubated at 37° C. for 48-72 h. Attained cell density corresponding to 3×10^8 CFU/ml was further diluted 1000 fold to a cell density of 3×10^5 CFU/ml. One hundred of cell suspension was aliquoted into 96-well plates within 30 min with a multichannel pipette to give 3×10^4 CFU/well. Plates were incubated at 37° C. for 48 h. After 48 h the plates were read visually. MICs were determined as 80% or more reduction in pellet, compared to positive control lane. Borderline cases were interpreted by visual examples from “Methods for Antimicrobial Susceptibility Testing of Anaerobic Bacteria: Approved Standard” (CLSI, 7th edition).

Turning to `CCC[C@@H]1C[C@@H](C(=O)N[C@@H]([C@H]2O[C@H](SC)[C@H](O)[C@@H](O)[C@H]2O)[C@H](C)Cl)N(C)C1` [Cl, Clindamycin], the MIC lay within 0.06 to 0.12 µg/mL (≈ 0.141 to 0.282 µM).
